The supplement of paper PMC10849652
This is one part of the list.

By UniProt entry, the sequences of proteins in these tests, tags left out. Where a name states a change or a piece, a line headed by the entry shows the natural chain unless it says otherwise.
UniProt Q9NP81: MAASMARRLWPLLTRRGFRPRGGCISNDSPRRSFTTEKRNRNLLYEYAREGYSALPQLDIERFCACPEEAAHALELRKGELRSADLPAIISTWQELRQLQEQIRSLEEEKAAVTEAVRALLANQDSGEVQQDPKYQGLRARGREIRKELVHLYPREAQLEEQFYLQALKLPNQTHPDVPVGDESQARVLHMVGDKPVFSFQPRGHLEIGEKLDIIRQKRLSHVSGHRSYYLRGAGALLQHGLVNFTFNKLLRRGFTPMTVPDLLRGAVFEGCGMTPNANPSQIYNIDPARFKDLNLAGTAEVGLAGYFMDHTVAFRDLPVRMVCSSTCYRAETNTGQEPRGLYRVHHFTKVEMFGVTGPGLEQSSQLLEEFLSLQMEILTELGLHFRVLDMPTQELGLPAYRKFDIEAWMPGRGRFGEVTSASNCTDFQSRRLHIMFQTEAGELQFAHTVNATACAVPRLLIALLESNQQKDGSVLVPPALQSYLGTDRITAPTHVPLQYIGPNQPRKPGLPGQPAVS

Experiments:
Experiment in all cases: log2 fold change, soluble protein after heating vs DMSO (PISA); higher = thermal stabilisation; K562 cells, 10 uM, 30 min; active = over 0.2 and 3.5 SD of the protein, either way, in both replicates (recomputed)
[1] = compound: CNC(=O)c1ccc(Nc2ncc(C(F)(F)F)c(NCc3nccnc3N(C)S(C)(=O)=O)n2)cc1 [defactinib]
Summary of the method: (§1)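 Thermal stability values are relative to control samples and come from duplicates. They are expressed as log2 fold changes. For measurement, K562 cells (2×10^6 cells/mL) received 10 μM compound for 30 min, and aliquots were heated for 3 min over 48°C-58°C, pooled, and extracted at 4°C in PBS with 0.5% NP-40. Soluble protein, the supernatant after 21,000xg for 90 min, was quantified by TMTpro 16plex LC-MS/MS with equalised channel sums.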

[2] = compound: CNCc1ccc(-c2[nH]c3cc(F)cc4c3c2CCNC4=O)cc1 [rucaparib]
Summary of the method: as §1

[3] = compound: CNc1nc(-c2ccc3c(N)n[nH]c3c2)cc(N2C[C@@H](C(=O)NC3CCCCC3)CC[C@H]2C)n1
Summary of the method: as §1

[4] = compound: COC(=O)N[C@@H](C)CNc1nccc(-c2cn(C(C)C)nc2-c2cc(Cl)cc(NS(C)(=O)=O)c2F)n1 [encorafenib]
Summary of the method: as §1

[5] = compound: COC(=O)[C@H](CCSC)NC(=O)C1=C(C=C(C=C1)NC[C@H](CS)N)C2=CC=CC=C2
Summary of the method: as §1

[6] = compound: COC1=CC=C(C=C1)CN2C=CC3=C2C=C(C=C3)C(=O)NO
Summary of the method: as §1

[7] = compound: CON(C)C(=O)N1N=C(c2cc(F)ccc2F)S[C@@]1(CCCN)c1ccccc1 [filanesib]
Summary of the method: as §1

[8] = compound: CO[C@H]1C[C@@H]2CC[C@@H](C)[C@@](O)(O2)C(=O)C(=O)N2CCCC[C@H]2C(=O)O[C@H]([C@H](C)C[C@@H]2CC[C@H](n3cnnn3)[C@H](OC)C2)CC(=O)[C@H](C)/C=C(\C)[C@@H](O)[C@@H](OC)C(=O)[C@H](C)C[C@H](C)/C=C/C=C/C=C/1C [zotarolimus]
Summary of the method: as §1

[9] = compound: COc1cc(C(=O)O)ccc1NC(=O)[C@@H]1N[C@@H](CC(C)(C)C)[C@](C#N)(c2ccc(Cl)cc2F)[C@H]1c1cccc(Cl)c1F [idasanutlin]
Summary of the method: as §1

[10] = compound: COc1cc(Nc2ncc3c(n2)-c2ccc(Cl)cc2C(c2c(F)cccc2OC)=NC3)ccc1C(=O)O [alisertib]
Summary of the method: as §1

[11] = compound: COc1cc2nc(-c3cc(F)ccc3O)nc(N[C@@H]3CNC[C@H]3C(C)(C)O)c2cc1OC
Summary of the method: as §1

[12] = compound: COc1cc2ncnc(Nc3ccc(F)c(Cl)c3)c2cc1OCCCN1CCOCC1 [gefitinib]
Summary of the method: as §1

[13] = compound: COc1cccc2cc(-c3nc([C@H]4CC[C@H](C(=O)O)CC4)n4ncnc(N)c34)[nH]c12
Summary of the method: as §1

[14] = compound: CS(=O)(=O)CCNCc1ccc(-c2ccc3ncnc(Nc4ccc(OCc5cccc(F)c5)c(Cl)c4)c3c2)o1 [lapatinib]
Summary of the method: as §1

[15] = compound: CS(=O)(=O)N1CCN(Cc2cc3nc(-c4cccc5[nH]ncc45)nc(N4CCOCC4)c3s2)CC1 [pictilisib]
Summary of the method: as §1

[16] = compound: CS(=O)(=O)c1ccc(-c2cnc(N)c(C(=O)Nc3ccccc3)n2)cc1
Summary of the method: as §1

[17] = compound: C[C@@H](Oc1cc(-c2cnn(C3CCNCC3)c2)cnc1N)c1c(Cl)ccc(F)c1Cl [crizotinib]
Summary of the method: as §1

[18] = compound: C[C@@H]1COCCN1C2=NC(=NC(=C2)C3(CC3)S(=O)(=O)C)C4=C5C=CNC5=CC=C4
Summary of the method: as §1

[19] = compound: C[C@H](C1=CC=C(C=C1)C(=O)NC2=C3C=CNC3=NC=C2)N
Summary of the method: as §1

[20] = compound: C[C@H](Nc1ncnc2nc[nH]c12)c1cc2cccc(Cl)c2c(=O)n1-c1ccccc1 [duvelisib]
Summary of the method: as §1

[21] = compound: Cc1cc(Nc2cc(CN3CCOCC3)c3nc(C)c(Cc4ccc(Cl)cc4F)n3n2)n[nH]1 [gandotinib]
Summary of the method: as §1

[22] = compound: Cc1cc(Nc2cc(N3CCN(C)CC3)nc(Sc3ccc(NC(=O)C4CC4)cc3)n2)n[nH]1 [tozasertib]
Summary of the method: as §1

[23] = compound: Cc1cc(SCc2sc(-c3ccc(C(F)(F)F)cc3)nc2C)ccc1OCC(=O)O
Summary of the method: as §1

[24] = compound: Cc1ccc(-n2nc(C(C)(C)C)cc2NC(=O)Nc2ccc(OCCN3CCOCC3)c3ccccc23)cc1 [doramapimod]
Summary of the method: as §1

[25] = compound: Cc1ccc(C(=O)N(CCCN)[C@@H](c2nc3cc(Cl)ccc3c(=O)n2Cc2ccccc2)C(C)C)cc1 [ispinesib]
Summary of the method: as §1

[26] = compound: Cc1ccc(NC(=O)c2ccc(CN3CC[C@H](N(C)C)C3)c(C(F)(F)F)c2)cc1Nc1nccc(-c2cncnc2)n1 [bafetinib]
Summary of the method: as §1

[27] = compound: Cc1cccc(CC(=O)N2CCc3c2ccc(-c2cn(C)c4ncnc(N)c24)c3F)n1
Summary of the method: as §1

[28] = compound: Cc1cn(-c2cc(NC(=O)c3ccc(C)c(Nc4nccc(-c5cccnc5)n4)c3)cc(C(F)(F)F)c2)cn1 [nilotinib]
Summary of the method: as §1

[29] = compound: Cc1nc(Nc2n[nH]c3c2CN(C(=O)N[C@H](CN(C)C)c2ccccc2)C3(C)C)c2sccc2n1
Summary of the method: as §1

[30] = compound: Cc1nc(Nc2ncc(C(=O)Nc3c(C)cccc3Cl)s2)cc(N2CCN(CCO)CC2)n1 [dasatinib]
Summary of the method: as §1

[31] = compound: Cc1ncc(-c2ccnc(Nc3ccc(S(C)(=O)=O)cc3)n2)n1C(C)C
Summary of the method: as §1

[32] = compound: Cc1sc2c(c1C)C(c1ccc(Cl)cc1)=N[C@@H](CC(=O)OC(C)(C)C)c1nnc(C)n1-2
Summary of the method: as §1

[33] = compound: Cn1cc(-c2ccc3c(c2)CCN3C(=O)Cc2cccc(C(F)(F)F)c2)c2c(N)ncnc21
Summary of the method: as §1

[34] = compound: Cn1cc(-c2ccc3nnc(C(F)(F)c4ccc5ncccc5c4)n3n2)cn1
Summary of the method: as §1

[35] = compound: Cn1cncc1[C@@](N)(c1ccc(Cl)cc1)c1ccc2c(c1)c(-c1cccc(Cl)c1)cc(=O)n2C [tipifarnib]
Summary of the method: as §1

[36] = compound: FC(F)(F)c1ccc(/C=C/c2nc(COc3ccc(CCCCn4ccnn4)cc3)co2)cc1 [mubritinib]
Summary of the method: as §1

[37] = compound: NC(=O)Nc1cc(-c2cccc(F)c2)sc1C(=O)N[C@H]1CCCNC1
Summary of the method: as §1

[38] = compound: NC(=O)c1cnc(N[C@@H]2CCCC[C@@H]2N)nc1Nc1cccc(-n2nccn2)c1
Summary of the method: as §1

[39] = compound: NC1(c2ccc(-c3nc4ccn5c(=O)[nH]nc5c4cc3-c3ccccc3)cc2)CCC1
Summary of the method: as §1

[40] = compound: NCC(=O)Nc1ccc(-n2nc(C(F)(F)F)cc2-c2ccc3c(ccc4ccccc43)c2)cc1
Summary of the method: as §1

[41] = compound: Nc1ccccc1NC(=O)c1ccc(CNC(=O)OCc2cccnc2)cc1 [entinostat]
Summary of the method: as §1

[42] = compound: O=C(CCCCCCC(=O)Nc1ccccc1)NO [vorinostat]
Summary of the method: as §1

[43] = compound: O=C(CCCCCCNC(=O)c1cnc(N(c2ccccc2)c2ccccc2Cl)nc1)NO [citarinostat]
Summary of the method: as §1

[44] = compound: O=C(O)c1ccc2c(c1)nc(Nc1cccc(Cl)c1)c1ccncc12 [silmitasertib]
Summary of the method: as §1

[45] = compound: O=C1NC(=O)C(c2cnc3ccccn23)=C1c1cn2c3c(cc(F)cc13)CN(C(=O)N1CCCCC1)CC2
Summary of the method: as §1

[46] = compound: c1cc(OCCN2CCCCC2)cc(-c2n[nH]c3ccc(-c4nnc[nH]4)cc23)c1
Summary of the method: as §1

[47] = compound: c1ccc([C@@H]2C[C@H]2NC2CCNCC2)cc1
Summary of the method: as §1

[48] = compound: c1cn2cc(-c3ccc4cn[nH]c4c3)nc(Nc3ccc(N4CCOCC4)cc3)c2n1 [entospletinib]
Summary of the method: as §1

Measured: log2 fold change

SARS2 (UniProt Q9NP81)
inactive: [1] -0.015 | [2] -0.035 | [3] -0.014 | [4] -0.007 | [5] 0.03 | [6] 0.002 | [7] -0.07 | [8] -0.013 | [9] -0.012 | [10] 0.023 | [11] -0.027 | [12] -0.002 | [13] -0.004 | [14] 0 | [15] -0.006 | [16] 0.038 | [17] -0.014 | [18] 0.009 | [19] -0.051 | [20] 0.03 | [21] -0.019 | [22] 0.011 | [23] -0.003 | [24] -0.034 | [25] -0.022 | [26] -0.018 | [27] 0.022 | [28] -0.012 | [29] -0.003 | [30] 0 | [31] 0 | [32] 0.004 | [33] 0.022 | [34] 0.015 | [35] 0.016 | [36] 0.008 | [37] 0.009 | [38] 0.017 | [39] -0.041 | [40] -0.025 | [41] -0.012 | [42] -0.005 | [43] -0.01 | [44] -0.043 | [45] -0.008 | [46] -0.009 | [47] -0.003 | [48] -0.037
